# Measurements from US20240140952A1, “INHIBITORS AND DEGRADERS OF JANUS KINASE 2” (H. LEE MOFFITT CANCER CENTER AND RESEARCH INSTITUTE, INC., priority 2021, published 2024).
# The chains behind the UniProt entries cited, without tags or fusion partners.
# UniProt O60674, whole entry: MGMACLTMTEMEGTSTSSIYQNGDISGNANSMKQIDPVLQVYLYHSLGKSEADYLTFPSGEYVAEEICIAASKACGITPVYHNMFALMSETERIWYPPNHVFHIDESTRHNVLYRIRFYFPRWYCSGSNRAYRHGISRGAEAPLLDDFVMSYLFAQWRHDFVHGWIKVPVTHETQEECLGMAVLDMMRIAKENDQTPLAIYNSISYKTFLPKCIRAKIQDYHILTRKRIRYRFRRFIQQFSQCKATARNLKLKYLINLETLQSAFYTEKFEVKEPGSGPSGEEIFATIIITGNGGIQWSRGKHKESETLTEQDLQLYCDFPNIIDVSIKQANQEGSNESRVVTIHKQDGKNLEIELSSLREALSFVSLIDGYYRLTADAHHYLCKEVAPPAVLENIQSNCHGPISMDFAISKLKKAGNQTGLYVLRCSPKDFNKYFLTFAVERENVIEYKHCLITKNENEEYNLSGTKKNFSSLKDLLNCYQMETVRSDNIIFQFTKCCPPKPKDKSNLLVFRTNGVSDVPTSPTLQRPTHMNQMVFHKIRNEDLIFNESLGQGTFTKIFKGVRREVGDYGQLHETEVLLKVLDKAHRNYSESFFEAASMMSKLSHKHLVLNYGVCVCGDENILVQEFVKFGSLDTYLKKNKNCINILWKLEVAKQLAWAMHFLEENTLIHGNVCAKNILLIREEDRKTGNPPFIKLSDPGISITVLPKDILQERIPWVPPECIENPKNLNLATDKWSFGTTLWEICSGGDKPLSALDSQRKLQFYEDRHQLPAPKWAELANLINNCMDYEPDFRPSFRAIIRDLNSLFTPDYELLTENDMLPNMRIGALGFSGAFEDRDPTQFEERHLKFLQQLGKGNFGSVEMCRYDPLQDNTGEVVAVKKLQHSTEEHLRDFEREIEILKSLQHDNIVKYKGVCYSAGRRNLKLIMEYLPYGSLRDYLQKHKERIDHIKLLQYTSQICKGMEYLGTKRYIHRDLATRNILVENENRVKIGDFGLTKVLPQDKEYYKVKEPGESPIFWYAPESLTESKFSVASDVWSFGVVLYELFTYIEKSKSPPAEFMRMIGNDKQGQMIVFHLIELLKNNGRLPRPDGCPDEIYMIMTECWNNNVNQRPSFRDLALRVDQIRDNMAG
# Molecular target: JAK2 (Homo sapiens (Human), UniProt O60674)
# Experiment: Radiometric assay of enzymatic JAK2 activity by Reaction Biology Corp.
# Details: read-out: Biochemical inhibition IC50
compound,measurement,value
N#CCC(C1CCCC1)n1cc(-c2nc(Nc3ccc(C4CCNCC4)cc3)nc3[nH]ccc23)cn1 (racemic) [(rac)-1],IC50,< 0.15 nM and < 0.05 nM

# Certain results were filed several times, with different values. The other results are left out here. There may be further records. Values that stand side by side do not match, cause unknown; dose, time, organism, isomer or construct need not be as stated for each record.
